Two sequences from publication doi:10.1101/2022.09.23.509143 can be followed below.

Construct, isoform or probe ends are uncertain for at least one entry. Tags and fusion partners may be left off the protein sequences shown.

The series has as its system T1, LexA (AnLexA) (Anabaena sp. PCC7120).
T1 sequence (looked up, limits assumed): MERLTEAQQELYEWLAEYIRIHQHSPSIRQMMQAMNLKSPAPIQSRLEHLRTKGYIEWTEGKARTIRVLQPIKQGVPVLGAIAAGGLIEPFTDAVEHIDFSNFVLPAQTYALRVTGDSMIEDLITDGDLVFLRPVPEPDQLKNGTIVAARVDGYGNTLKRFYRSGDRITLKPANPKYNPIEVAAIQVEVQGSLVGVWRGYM
Put plainly: EMSA. The following applies: 62 nM LexA; probe letters rebuilt from the primers and the genome.

For “TAGTTGTGTTGTAAGAATGCCTACAGTAATTTAAAAATGTATATGATGTGTATACATTTTTTTGTGTATTTTGTAGTTCCAGGAAAAATGTAAAATTCTAAACATGAATATAGCCTAAATATTATAGTTATTCCTAACAAAAATTCCAGCTAAAAATTTCACCCAAATTTCATATCGATATGAAACACTGGAAAAAGACTACTATTCAAATTCCTTAAACTACTCACAAAAGCAATGTAACTAGCTAAAGAAAGCGGTAGTCCAAATTTGCACATTAAATGCCAACATCCGGCGATTCTGCTTTCTCACTAACTTAGGACACAACAAGCG (double strand) [all7619 upstream region]”, the binding result was “binds”.

Turning to “TGACTAAACGCATAGCTTTCAATAACCGCAGCTGATGACAAACAGCTGATTCACTCATTTTGGTTAATGCAGCTAGATCGCAAACACACAACTCACTAGAAGCCAAAGCTGATAGGAGGCGTATACGGTTTGTATCTGCTAACACCCCAAAAATTTCTGCCATTTGTTGTGCTTTATCTGTCGGTAAGATTTGAGCCTGAGATGAGCGTACATTATCTAGATGCACCAGATGAGTATCACAGGTAGGGGTATCAGAACTTTGAATTAAGTCTAAGTCCTGCTTTTTCTTGTGCTTATTCATAGCAAGTTTTACTTAGCAATAGTTATCAATCTCAATAATACCTAAA (double strand) [aztA upstream region]”, the binding result is recorded as “binds”.
